Source: PubChem BioAssay (NCATS)
Inconclusive results, whose numbers are uncertain, are shown with a selection of clear calls. A potency beside an inconclusive call is a rough fit, not a confirmed value. Activity calls are given as the source filed them. Calls come from the whole dose curve; as a rule, active = well fitted activation curve with a large enough effect; inconclusive = small, poorly fitted or top-dose-only effect, or another doubt; inactive = no such curve, though single readings can be large or run the other way.

Each compound was assayed against Rap guanine nucleotide exchange factor 3 (Homo sapiens) (UniProt O95398) (assay: Counterscreen qHTS for agonist of cAMP-regulated guanine nucleotide exchange factor 3 (EPAC1) (AID 1645889; note: nearly all actives have a fitted effect of over 40% in size; for activation: % of control where 0% means no effect)). Settings: EPAC1 Rap1B-BODIPY-GDP exchange, fluorescence; activation: at 154 µM (top of the series) unless noted.
Outline: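 Measured: fluorescence of BODIPY-GDP bound to Rap1B, which falls as exchange proceeds. Conditions include 50 uM competing GDP, 5 and 30 min reads, and a later cAMP challenge for antagonist detection.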
Potency is the fitted concentration of half-maximal effect.

Compound	Potency	activation
O=C(/C=N/O)NCCCN1CCOCC1	inconclusive: 25.1 µM [activator, partial curve, poor fit]	
C[C@H](CCC(=O)O)[C@H]1CC[C@H]2[C@@H]3CC[C@@H]4C[C@H](O)CC[C@]4(C)[C@H]3CC[C@]12C		inactive: 15.8%
COc1cc(/C=C2\C(=O)N(c3cccc(C(=O)O)c3)N=C2C)ccc1OCc1ccccc1	inconclusive: 11.2 µM [activator, full curve]	
Cc1ccc(/C=C2/SC(=S)N(c3ccc(S(=O)(=O)Nc4nccs4)cc3)C2=O)cc1	inconclusive: 0.282 µM [activator, full curve, poor fit]	
Cc1cc(C)c(Nc2cc(S(=O)(=O)O)c(N)c3c2C(=O)c2ccccc2C3=O)c(C)c1		inactive: 2.13%
COc1ccc(NC(=O)CN(C)C(=O)c2cc(-c3ccco3)nc3ccccc23)cc1	inconclusive: 0.005 µM [activator, full curve, poor fit]	
